Experimental data from PubChem BioAssay AID1469 (National Center for Advancing Translational Sciences (NCATS), 2008).
“And” between values parts separate entries of the source, which are not always exact repeats. Equal values may be shown once. Screen size: about 280,000 compounds; about 180 (0.064%) were called active. Inconclusive means that the source gave no clear call. Such entries were picked first, then a sample of the others. Calls come from the whole dose curve; as a rule, active = well fitted inhibition curve with a large enough effect; inconclusive = small, poorly fitted or top-dose-only effect, or effect the other way; inactive = flat fitted curve, though single readings scatter. Potencies beside an inconclusive call are fits to weak or partial responses and may not hold up.

Chains of the proteins cited; added tags and fusions are not shown. Lines headed by an entry give the natural chain unless they say otherwise; changes in a name come on top.
UniProt P10828: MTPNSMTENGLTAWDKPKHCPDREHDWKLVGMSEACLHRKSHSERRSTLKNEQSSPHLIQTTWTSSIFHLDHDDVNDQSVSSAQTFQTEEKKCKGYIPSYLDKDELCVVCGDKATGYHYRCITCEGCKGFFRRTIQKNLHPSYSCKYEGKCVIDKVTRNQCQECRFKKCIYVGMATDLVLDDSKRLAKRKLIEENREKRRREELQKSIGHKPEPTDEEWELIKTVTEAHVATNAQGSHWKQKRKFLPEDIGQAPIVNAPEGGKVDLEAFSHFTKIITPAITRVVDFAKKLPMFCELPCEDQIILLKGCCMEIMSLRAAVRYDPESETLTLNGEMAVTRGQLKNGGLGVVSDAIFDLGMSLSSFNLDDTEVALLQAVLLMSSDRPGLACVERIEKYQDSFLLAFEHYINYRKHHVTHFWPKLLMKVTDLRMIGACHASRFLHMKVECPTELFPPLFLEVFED

biological target: Thyroid hormone receptor beta (Homo sapiens) (UniProt P10828); experiment: qHTS for Inhibitors of the Interaction of Thyroid Hormone Receptor and Steroid Receptor Coregulator 2; settings: TRbeta-SRC2 peptide binding, fluorescence polarization, receptor liganded with 1 µM T3; series mostly up to 106 µM; activity change, negative = inhibition: at the top concentration; note: nearly all actives have a fitted effect of over 50% in size;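 for activity change, negative = inhibition: plate controls were bound peptide for no effect and peptide without receptor for full effect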
In short: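 Fluorescence polarization of 20 nM Texas Red SRC2 peptide with 0.6 uM human TRb ligand-binding domain, in Tris buffer with 1uM T3 and 5% DMSO. Incubated 5 hr ambient; normalized to unbound and bound controls.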
Potency is the fitted concentration of half-maximal effect.

| Compound | activity change, negative = inhibition | Potency |
| --- | --- | --- |
| Cc1cc(C(=O)NCc2cccs2)ccc1[N+](=O)[O-] | inactive: -4.43% | – |
| CCCCCCCCS(=O)C1CS(=O)(=O)CC1O (centres undefined) | – | active: 5.01 µM |
| Cc1ccc(NC(=O)CS(=O)CC(=O)Nc2ccc(N3CCOCC3)cc2)cc1Cl (centres undefined) | – | inconclusive: 50.1 µM [activator, partial curve, poor fit] |
| COc1ccc(N2CCC(CNC(=O)Nc3cccc(OC)c3)C2)cc1 (centres undefined) | inactive: 0.613% | – |
| N#C/C(=C/c1ccco1)C(N)=S | – | inconclusive: 20 µM [inhibitor, full curve, poor fit] |
| O=C1CCCC/C1=C\Nc1ccc(O)cc1 | – | active: 44.7 µM |
| C=CCNC(=S)N/N=C(\C)c1ccccn1 | inactive: -16.5% | – |
| CCOC(=O)c1c(NC(=O)/C=C/C(=O)O)sc(C)c1-c1ccc(Cl)cc1 | – | inconclusive: 35.5 µM [inhibitor, partial curve] |
| COC(=O)c1ccc2c(c1)C(C)(C)C(/C=C/c1ccccc1O)=[N+]2C | – | active: 20 µM |
| COc1ccc(NC(=O)CCc2c(C)nc3nc(CNC(=O)OC(C)(C)C)nn3c2C)cc1OC | inactive: 0.143% | – |
| Oc1ccc2ccccc2c1C=NC12CN3CCN(CN(C3)C1)C2 | – | inconclusive: 35.5 µM [inhibitor, full curve] |
| COC1=C(Nc2ccc(O)cc2)C(=O)c2ccccc2C1=O | – | active: 35.5 µM |
| CCC(=Nc1ccc(N)cc1)C1=C(O)C(C(=O)OC)C(C)(C)CC1=O (centres undefined) | – | active: 28.2 µM |
| O=C1C(Cl)=C(NCCN2CCOCC2)C(=O)c2ncccc21 | – | inconclusive: 6.31 µM [inhibitor, full curve] and inconclusive: 31.6 µM [inhibitor, partial curve] |
| CO[C@H]1COC(=O)[C@@H](C)COC(=O)[C@H](C)NC(=O)C/C=C\[C@H]1C | inactive: -8.95% [at 11.2 µM] | – |
| Brc1ccc(-c2csc(N3CCc4ccccc4C3)n2)cc1 | inactive: -9.81% | – |
| CC(C)OC(=O)c1c(NC(=O)c2cccs2)sc2c1CCCC2 | – | inconclusive: 100 µM [inhibitor, partial curve, poor fit] |
| CCCN1C(=O)/C(=C2/C=Cc3ccccc3N2CC)SC1=S | – | inconclusive: 35.5 µM [inhibitor, single point] |
| CCOc1cc(C(c2c(C)[nH][nH]c2=O)c2c(C)[nH][nH]c2=O)ccc1OS(=O)(=O)c1ccc(C)cc1 | – | inconclusive: 79.4 µM [inhibitor, partial curve] |
| O=C1Nc2ccccc2C12OCCCCO2 | inactive: 6.26% | – |
| O=C1CSC(=S)N1Cc1cccnc1 | – | inconclusive: 31.6 µM [activator, partial curve] |
| COc1cc2ccccc2cc1C(=O)Nc1ccc2oc(-c3cccc(C)c3)nc2c1 | – | inconclusive: 44.7 µM [inhibitor, partial curve, poor fit] |
| CCNC(=O)CC1SC(=Nc2ccccc2C)N(C)C1=O (centres undefined) | – | inconclusive: 50.1 µM [inhibitor, partial curve] |

| Compound | activity change, negative = inhibition | Potency |
| --- | --- | --- |
| Cc1cccc(NC(=O)c2ccccc2NC(=O)C2CCCCC2)c1C | – | inconclusive: 39.8 µM [activator, partial curve] |
| CCN(CC)c1ccc(C2C(C(=O)OC(C)C)C(=O)CC(C)(O)C2C(=O)OC(C)C)cc1 (centres undefined) | inactive: 1.94% | – |
| COc1ccc(Nc2nc3ccccc3nc2-n2nc(C)cc2C)cc1 | inactive: -8.39% | – |
| CC(=O)/C(=N/Nc1ccccc1)Sc1nnc(CCc2ccccc2)n1-c1ccccc1 | – | inconclusive: 1.26 µM [activator, single point] |
| COc1ccc(-c2noc(CN(C)S(=O)(=O)c3ccc(Cl)cc3)n2)cc1OC | inactive: 0.495% | – |
| Oc1ccc2ccccc2c1N=Nc1ccccc1 | – | active: 100 µM |
| Oc1c(Cl)cc(Cl)cc1Sc1cc(Cl)cc(Cl)c1O | – | inconclusive: 126 µM [activator, partial curve] and inconclusive: 50.1 µM [activator, partial curve] |
| NC(=O)NC(CC(=O)NCCCc1ccccc1)c1ccc(Cl)cc1 (centres undefined) | – | active: 12.6 µM |
| CNS(=O)(=O)c1ccc2nc(NC(=O)/C=C/c3ccco3)sc2c1 | – | inconclusive: 44.7 µM [activator, partial curve] |
| Cc1[nH][nH]c(=O)c1C(c1c(C)[nH][nH]c1=O)c1cn(Cc2cccc3ccccc23)c2ccccc12 | – | inconclusive: 7.94 µM [inhibitor, full curve] |
| Cc1c(O)c(CN2CCCC2)cc2c3c(c(=O)oc12)CCC3 | – | inconclusive: 56.2 µM [activator, partial curve, poor fit] |
| C=C(C)C(=O)/C=C/c1ccc(Br)cc1 | inactive: 5.95% | – |
| O=C(CN1C(=O)NC(CCc2ccccc2)C1=O)NC1CC1 (centres undefined) | inactive: 4.81% | – |
| CCCCCCCc1c(O)nc(SCCN(C)C)[nH]c1=O | – | inconclusive: 79.4 µM [inhibitor, single point] |
| COc1ccccc1CNc1cc(C)nc2nc(-c3ccc(C)cc3)nn12 | inactive: -4.53% | – |
| O=C(CSc1nnc(-c2ccccc2)o1)Nc1ccccc1F | – | inconclusive: 31.6 µM [inhibitor, full curve, poor fit] |
| Cc1cc(C)cc(NC(=O)Cn2c(=O)n(-c3ccc(C)c(C)c3)c(=O)c3oc4ccccc4c32)c1 | inactive: 0.952% | – |
| Cc1ccc2occ(CC(=O)N(Cc3ccc(Cl)cc3)Cc3ccco3)c2c1 | – | inconclusive: 1 µM [activator, partial curve] |
| O=C1CCCC(O)=C1N=Nc1ccc(C(=O)O)cc1 | – | inconclusive: 31.6 µM [inhibitor, partial curve] |
| Cc1ccc(S(=O)(=O)/N=C2/C=C(Sc3ncn[nH]3)C(=O)c3ccccc32)cc1 | – | active: 28.2 µM |
| Cn1c(-c2ccccc2)cnc1NCc1ccccc1O | inactive: 4.53% | – |
| COc1ccc(S(=O)(=O)Nc2cc(Sc3ncn[nH]3)c(O)c3ccccc23)cc1 | – | inconclusive: 31.6 µM [inhibitor, full curve] |
| CC1/C=C/C=C/C=C/C=C/C=C/C=C/C=C/C(OC2OC(C)C(O)C(N)C2O)CC2O[C@@](O)(CC(O)CC(O)C(O)CCC(O)CC(O)CC(=O)OC(C)[C@H](C)C1O)CC(O)C2C(=O)O (some centres undefined) | – | inconclusive: 50.1 µM [activator, partial curve] |

Looked up above:
activity change, negative = inhibition with C=CCNC(=S)N/N=C(\C)c1ccccn1 reads inactive: -16.5%
Potency with Cc1cccc(NC(=O)c2ccccc2NC(=O)C2CCCCC2)c1C reads inconclusive: 39.8 µM [activator, partial curve]
Potency with O=C(CSc1nnc(-c2ccccc2)o1)Nc1ccccc1F reads inconclusive: 31.6 µM [inhibitor, full curve, poor fit]
activity change, negative = inhibition with COc1ccc(NC(=O)CCc2c(C)nc3nc(CNC(=O)OC(C)(C)C)nn3c2C)cc1OC reads inactive: 0.143%
Potency with Cc1ccc(NC(=O)CS(=O)CC(=O)Nc2ccc(N3CCOCC3)cc2)cc1Cl (centres undefined) reads inconclusive: 50.1 µM [activator, partial curve, poor fit]

Next compounds

| Compound | activity change, negative = inhibition | Potency |
| --- | --- | --- |
| Cc1ccc(C(=O)N/N=C/c2ccc(-c3ccccc3[N+](=O)[O-])o2)cn1 | – | inconclusive: 5.01 µM [activator, single point] |
| Cc1ccc(NCC(=O)N/N=C/c2cc3ccccc3nc2Cl)cc1 | – | inconclusive: 39.8 µM [inhibitor, partial curve] |
| CCn1cc2nc(SCC(=O)Nc3ccc(OC)c(Cl)c3)n(Cc3ccc(OC)cc3)c(=O)c2n1 | – | inconclusive: 5.01 µM [activator, single point] |
| Cc1cc(/C=C\c2nc(O)c([N+](=O)[O-])c(=O)[nH]2)c(C)n1-c1ccccc1 | inactive: 10.2% | – |
| Cc1ccoc1C(=O)NCCCNC(=O)c1occc1C | – | inconclusive: 44.7 µM [inhibitor, partial curve] |
| CSc1nc(N)nc(SCC(=O)Nc2cccc(F)c2)c1C#N | – | inconclusive: 28.2 µM [inhibitor, partial curve, poor fit] |
| COc1ccc(OCc2cccc(C(=O)Nn3cc([N+](=O)[O-])cn3)c2)cc1 | – | inconclusive: 0.316 µM [inhibitor, full curve, poor fit] |
| CCc1ccc(S(=O)(=O)/N=C2/C=C(Sc3ncn[nH]3)C(=O)c3ccccc32)cc1 | – | active: 20 µM |
| CCOc1ccc(/C=C/C(=O)c2cc(Br)ccc(=O)c2O)cc1 | inactive: -4.47% | – |
| Cc1cc(-c2ccc(N=Nc3cc(S(=O)(=O)O)c4ccccc4c3N)c(C)c2)ccc1N=Nc1cc(S(=O)(=O)O)c2ccccc2c1N | – | inconclusive: 50.1 µM [activator, partial curve] |
| O=C(Nc1ccc([N+](=O)[O-])cc1)Nc1ccc(N2CCOCC2)c2nonc12 | – | inconclusive: 2.82 µM [inhibitor, full curve] |
| CSc1ccc(-c2nnn(CC(=O)NCc3ccccc3)n2)cc1 | – | inconclusive: 22.4 µM [inhibitor, full curve, poor fit] |
| O=C(/C=C/c1ccccc1)c1ccc(O)cc1O | – | inconclusive: 35.5 µM [activator, partial curve] |
| COc1cc(N(C)C)cc(CN(C)CCc2ccc([N+](=O)[O-])cc2)c1O | – | inconclusive: 25.1 µM [inhibitor, full curve] |
| CN(c1ccccc1)c1ccc(/C=C(\C#N)c2nnc3n2CCCCC3)cc1[N+](=O)[O-] | – | inconclusive: 31.6 µM [inhibitor, partial curve] |
| Cc1ccc2c(CC(=O)Nc3c(C(=O)c4ccc(F)cc4)oc4ccccc34)coc2c1C | – | inconclusive: 10 µM [inhibitor, partial curve] |
| CCC(=O)N1CCc2cc(S(=O)(=O)NC(Cc3ccccc3)C(=O)NCc3cccc(OC)c3)ccc21 (centres undefined) | inactive: -7.08% | – |
| CSc1nc(C)cc(OCCO)n1 | – | inconclusive: 25.1 µM [inhibitor, partial curve, poor fit] |
| N#Cc1c(C(F)(F)F)cc(-c2cccs2)nc1SCC(=O)Nc1cccc(Br)c1 | – | inconclusive: 28.2 µM [inhibitor, single point] |
| O=c1cc(-c2ccc(Cl)cc2)[nH][nH]1 | – | inconclusive: 79.4 µM [inhibitor, partial curve] |
| CCOC(=O)c1ccccc1NS(=O)(=O)c1ccc(OCC)cc1 | inactive: 2.58% | – |
| Cc1ccc2nc(/C(C#N)=C\c3ccc([N+](=O)[O-])o3)[nH]c2c1 | – | inconclusive: 8.91 µM [activator, full curve] |
| CC1CCCN(S(=O)(=O)c2ccc(NC(=O)CN3CCN(C)CC3)cc2)C1 (centres undefined) | – | inconclusive: 50.1 µM [inhibitor, partial curve] |
